Among the data in the supplement of paper PMC10849652 are log2 fold change values, retold here.

By UniProt entry, the sequences of proteins in these tests, tags left out. Where a name states a change or a piece, a line headed by the entry shows the natural chain unless it says otherwise.
UniProt Q9BW60: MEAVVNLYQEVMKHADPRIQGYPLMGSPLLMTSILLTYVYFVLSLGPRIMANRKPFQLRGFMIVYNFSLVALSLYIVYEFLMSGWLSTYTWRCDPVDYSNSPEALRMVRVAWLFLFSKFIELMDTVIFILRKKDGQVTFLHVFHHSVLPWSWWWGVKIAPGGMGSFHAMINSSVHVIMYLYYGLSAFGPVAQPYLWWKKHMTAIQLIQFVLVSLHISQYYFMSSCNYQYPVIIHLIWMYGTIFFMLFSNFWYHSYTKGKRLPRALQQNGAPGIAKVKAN
UniProt P55010, whole entry, looked up: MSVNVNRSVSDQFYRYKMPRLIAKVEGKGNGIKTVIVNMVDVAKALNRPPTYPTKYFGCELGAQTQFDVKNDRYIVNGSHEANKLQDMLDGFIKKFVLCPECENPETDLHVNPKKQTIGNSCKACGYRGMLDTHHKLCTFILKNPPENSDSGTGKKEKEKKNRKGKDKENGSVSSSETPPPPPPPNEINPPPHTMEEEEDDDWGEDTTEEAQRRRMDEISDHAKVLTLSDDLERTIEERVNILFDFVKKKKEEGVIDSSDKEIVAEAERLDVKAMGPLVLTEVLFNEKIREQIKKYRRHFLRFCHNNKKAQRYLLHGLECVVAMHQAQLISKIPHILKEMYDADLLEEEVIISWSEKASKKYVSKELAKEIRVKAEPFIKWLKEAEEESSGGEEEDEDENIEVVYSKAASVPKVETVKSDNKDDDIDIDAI
UniProt Q5NDL2: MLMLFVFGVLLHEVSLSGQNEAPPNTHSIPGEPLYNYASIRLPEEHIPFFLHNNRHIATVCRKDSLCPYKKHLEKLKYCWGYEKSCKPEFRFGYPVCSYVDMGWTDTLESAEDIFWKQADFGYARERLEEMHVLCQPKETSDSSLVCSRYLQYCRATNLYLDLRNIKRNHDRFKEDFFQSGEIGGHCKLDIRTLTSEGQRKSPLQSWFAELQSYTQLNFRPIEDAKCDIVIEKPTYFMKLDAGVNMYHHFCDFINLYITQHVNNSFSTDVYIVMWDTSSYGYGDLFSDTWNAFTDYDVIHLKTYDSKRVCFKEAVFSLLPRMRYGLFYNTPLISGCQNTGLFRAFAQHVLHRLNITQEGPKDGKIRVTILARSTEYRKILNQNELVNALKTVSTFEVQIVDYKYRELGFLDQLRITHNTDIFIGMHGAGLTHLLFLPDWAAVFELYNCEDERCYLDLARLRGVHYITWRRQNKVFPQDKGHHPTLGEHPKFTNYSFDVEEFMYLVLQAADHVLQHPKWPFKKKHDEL
UniProt Q96C19: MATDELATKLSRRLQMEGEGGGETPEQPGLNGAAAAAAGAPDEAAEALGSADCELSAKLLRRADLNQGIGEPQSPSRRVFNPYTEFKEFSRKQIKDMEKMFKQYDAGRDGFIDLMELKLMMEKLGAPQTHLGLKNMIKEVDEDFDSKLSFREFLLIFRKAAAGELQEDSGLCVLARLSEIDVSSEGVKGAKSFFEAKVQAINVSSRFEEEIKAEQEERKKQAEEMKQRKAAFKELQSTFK
UniProt O95163: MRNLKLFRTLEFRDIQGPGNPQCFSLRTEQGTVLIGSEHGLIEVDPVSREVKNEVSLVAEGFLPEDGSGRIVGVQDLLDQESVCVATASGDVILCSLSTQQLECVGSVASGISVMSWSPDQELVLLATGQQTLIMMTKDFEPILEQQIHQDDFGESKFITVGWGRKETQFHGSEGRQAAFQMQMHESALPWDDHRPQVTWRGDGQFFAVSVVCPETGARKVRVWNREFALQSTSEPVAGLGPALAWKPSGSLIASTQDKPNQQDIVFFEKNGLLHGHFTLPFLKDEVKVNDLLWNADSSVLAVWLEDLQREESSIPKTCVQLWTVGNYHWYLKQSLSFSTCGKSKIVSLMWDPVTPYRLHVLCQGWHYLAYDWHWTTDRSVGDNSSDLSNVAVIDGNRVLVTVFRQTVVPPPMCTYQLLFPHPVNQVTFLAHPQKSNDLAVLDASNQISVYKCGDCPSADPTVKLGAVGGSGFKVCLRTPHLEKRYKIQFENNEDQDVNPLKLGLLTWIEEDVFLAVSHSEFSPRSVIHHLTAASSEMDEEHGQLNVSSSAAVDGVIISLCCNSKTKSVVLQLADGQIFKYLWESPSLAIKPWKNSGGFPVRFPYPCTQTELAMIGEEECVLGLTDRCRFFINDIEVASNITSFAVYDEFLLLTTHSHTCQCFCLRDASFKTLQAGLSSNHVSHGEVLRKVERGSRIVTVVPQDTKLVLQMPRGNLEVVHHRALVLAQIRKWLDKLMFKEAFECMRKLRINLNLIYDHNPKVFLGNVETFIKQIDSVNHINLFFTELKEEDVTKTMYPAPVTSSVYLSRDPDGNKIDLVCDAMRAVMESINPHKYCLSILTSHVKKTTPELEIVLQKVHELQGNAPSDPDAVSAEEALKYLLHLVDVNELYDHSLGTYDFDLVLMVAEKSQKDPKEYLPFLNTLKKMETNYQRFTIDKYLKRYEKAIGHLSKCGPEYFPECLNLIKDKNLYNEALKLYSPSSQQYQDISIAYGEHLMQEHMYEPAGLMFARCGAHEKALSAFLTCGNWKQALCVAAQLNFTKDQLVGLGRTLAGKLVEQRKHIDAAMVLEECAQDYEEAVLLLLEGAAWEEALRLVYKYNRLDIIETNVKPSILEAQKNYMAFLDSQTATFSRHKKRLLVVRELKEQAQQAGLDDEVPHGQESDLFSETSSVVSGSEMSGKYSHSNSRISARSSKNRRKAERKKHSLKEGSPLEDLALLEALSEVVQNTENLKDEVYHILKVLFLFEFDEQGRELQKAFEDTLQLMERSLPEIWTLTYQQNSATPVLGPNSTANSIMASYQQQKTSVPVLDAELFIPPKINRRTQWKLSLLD
UniProt Q8N6R0: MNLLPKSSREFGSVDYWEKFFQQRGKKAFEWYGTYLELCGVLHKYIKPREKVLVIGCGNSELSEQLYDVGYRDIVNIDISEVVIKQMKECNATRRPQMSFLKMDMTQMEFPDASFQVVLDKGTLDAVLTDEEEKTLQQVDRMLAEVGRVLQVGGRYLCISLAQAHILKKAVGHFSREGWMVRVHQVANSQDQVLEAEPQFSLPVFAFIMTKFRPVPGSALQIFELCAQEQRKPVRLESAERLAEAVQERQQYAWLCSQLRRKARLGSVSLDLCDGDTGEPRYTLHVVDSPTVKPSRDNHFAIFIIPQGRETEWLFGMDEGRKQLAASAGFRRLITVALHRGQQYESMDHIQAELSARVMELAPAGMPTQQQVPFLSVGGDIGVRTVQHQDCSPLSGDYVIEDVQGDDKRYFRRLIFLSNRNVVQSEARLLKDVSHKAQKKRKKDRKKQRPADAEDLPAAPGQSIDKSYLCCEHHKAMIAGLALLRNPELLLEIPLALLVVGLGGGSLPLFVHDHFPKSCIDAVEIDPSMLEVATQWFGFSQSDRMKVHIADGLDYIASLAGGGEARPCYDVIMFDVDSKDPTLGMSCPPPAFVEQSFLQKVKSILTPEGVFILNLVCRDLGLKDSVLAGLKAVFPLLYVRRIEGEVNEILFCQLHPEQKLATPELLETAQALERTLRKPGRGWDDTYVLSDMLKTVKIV
UniProt P06730, whole entry, looked up: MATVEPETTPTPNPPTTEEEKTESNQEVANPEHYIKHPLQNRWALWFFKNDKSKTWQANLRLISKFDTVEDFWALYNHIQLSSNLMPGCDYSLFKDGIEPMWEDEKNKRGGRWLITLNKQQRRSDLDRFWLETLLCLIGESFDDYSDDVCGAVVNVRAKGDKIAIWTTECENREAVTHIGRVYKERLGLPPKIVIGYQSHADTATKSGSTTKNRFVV
UniProt Q13347, whole entry, looked up: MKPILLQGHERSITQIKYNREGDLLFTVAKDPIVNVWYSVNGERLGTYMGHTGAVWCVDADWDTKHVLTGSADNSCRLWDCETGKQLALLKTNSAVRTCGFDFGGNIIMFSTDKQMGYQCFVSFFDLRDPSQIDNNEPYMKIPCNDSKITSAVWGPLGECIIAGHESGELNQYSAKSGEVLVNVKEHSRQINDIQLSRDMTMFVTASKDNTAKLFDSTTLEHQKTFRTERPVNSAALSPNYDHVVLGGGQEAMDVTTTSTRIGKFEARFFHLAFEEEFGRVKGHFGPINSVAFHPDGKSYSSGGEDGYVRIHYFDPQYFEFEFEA
UniProt O00303, whole entry, looked up: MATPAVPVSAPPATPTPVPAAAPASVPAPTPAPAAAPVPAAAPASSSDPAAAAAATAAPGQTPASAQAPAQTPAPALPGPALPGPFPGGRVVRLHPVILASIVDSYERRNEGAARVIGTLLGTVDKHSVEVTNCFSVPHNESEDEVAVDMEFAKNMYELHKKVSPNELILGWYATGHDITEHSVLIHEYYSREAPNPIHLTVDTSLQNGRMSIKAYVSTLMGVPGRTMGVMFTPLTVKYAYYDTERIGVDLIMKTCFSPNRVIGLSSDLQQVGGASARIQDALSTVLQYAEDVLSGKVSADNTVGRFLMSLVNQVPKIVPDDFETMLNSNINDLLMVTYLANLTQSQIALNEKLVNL
UniProt Q04637, whole entry, looked up: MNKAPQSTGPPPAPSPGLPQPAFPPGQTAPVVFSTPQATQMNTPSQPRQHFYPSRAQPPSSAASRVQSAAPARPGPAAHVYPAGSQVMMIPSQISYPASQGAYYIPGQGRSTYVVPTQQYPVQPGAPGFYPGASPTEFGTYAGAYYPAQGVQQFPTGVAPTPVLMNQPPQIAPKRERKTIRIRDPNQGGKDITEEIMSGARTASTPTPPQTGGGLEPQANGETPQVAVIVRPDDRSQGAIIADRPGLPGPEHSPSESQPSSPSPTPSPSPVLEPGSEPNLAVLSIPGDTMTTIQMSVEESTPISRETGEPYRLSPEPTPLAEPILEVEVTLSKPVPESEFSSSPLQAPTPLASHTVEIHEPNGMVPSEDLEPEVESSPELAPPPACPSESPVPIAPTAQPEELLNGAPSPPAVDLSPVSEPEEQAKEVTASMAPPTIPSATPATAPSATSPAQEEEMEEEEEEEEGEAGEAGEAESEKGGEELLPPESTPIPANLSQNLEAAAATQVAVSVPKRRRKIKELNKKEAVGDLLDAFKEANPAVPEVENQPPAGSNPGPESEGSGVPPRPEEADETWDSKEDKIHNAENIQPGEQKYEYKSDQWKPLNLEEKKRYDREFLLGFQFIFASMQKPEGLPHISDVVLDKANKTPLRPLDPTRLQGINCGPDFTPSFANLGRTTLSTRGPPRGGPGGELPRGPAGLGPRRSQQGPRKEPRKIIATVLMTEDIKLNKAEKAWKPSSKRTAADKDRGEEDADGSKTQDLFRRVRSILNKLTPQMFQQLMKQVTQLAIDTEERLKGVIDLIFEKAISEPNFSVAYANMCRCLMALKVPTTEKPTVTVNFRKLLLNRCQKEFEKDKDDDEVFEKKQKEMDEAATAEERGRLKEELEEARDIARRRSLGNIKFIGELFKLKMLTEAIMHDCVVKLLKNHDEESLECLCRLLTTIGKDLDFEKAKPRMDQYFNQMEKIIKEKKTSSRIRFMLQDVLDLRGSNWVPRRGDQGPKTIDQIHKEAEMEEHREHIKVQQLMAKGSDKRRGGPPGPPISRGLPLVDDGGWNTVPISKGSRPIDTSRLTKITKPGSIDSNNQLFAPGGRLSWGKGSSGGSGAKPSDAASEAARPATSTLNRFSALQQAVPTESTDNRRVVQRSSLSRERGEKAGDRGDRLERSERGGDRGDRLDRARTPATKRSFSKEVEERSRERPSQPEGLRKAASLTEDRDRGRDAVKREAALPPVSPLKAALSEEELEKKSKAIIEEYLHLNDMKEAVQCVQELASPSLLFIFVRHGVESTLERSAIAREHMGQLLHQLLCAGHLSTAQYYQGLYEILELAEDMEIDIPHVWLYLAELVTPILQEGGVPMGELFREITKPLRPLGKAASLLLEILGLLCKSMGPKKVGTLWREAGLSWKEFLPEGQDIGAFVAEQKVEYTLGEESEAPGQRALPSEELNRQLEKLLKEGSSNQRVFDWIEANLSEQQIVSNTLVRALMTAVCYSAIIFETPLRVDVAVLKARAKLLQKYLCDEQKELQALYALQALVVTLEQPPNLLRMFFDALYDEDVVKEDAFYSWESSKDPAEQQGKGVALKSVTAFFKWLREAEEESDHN
UniProt Q9H223: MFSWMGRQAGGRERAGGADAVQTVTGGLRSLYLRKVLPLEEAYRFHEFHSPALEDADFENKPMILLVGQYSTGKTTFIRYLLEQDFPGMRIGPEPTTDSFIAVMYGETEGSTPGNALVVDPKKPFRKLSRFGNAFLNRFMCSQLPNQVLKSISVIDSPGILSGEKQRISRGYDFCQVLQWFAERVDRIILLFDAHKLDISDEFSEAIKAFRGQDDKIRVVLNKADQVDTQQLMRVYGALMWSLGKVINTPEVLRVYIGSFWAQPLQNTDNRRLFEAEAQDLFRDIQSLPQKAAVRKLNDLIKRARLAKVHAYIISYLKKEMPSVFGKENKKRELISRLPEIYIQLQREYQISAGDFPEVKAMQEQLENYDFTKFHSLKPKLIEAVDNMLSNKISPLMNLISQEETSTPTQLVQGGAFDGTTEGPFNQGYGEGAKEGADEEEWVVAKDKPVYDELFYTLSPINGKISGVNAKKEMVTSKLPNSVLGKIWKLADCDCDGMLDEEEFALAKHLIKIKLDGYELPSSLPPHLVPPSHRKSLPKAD

The other results are listed elsewhere or left out.

Compound in the first test: O=C(O)c1ccc2c(c1)nc(Nc1cccc(Cl)c1)c1ccncc12 [silmitasertib]
In words: log2 fold change, soluble protein after heating vs DMSO (PISA); higher = thermal stabilisation; K562 cells, 10 uM, 30 min; active = over 0.2 and 3.5 SD of the protein, either way, in both replicates (recomputed). The method in brief: (§1)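 Thermal stability values are relative to control samples and come from duplicates. They are expressed as log2 fold changes. For measurement, K562 cells (2×10^6 cells/mL) received 10 μM compound for 30 min, and aliquots were heated for 3 min over 48°C-58°C, pooled, and extracted at 4°C in PBS with 0.5% NP-40. Soluble protein, the supernatant after 21,000xg for 90 min, was quantified by TMTpro 16plex LC-MS/MS with equalised channel sums.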
In the case of ELOVL1 (UniProt Q9BW60), the log2 fold change is inactive: -0.046.

Consider EGLN1 (UniProt Q9GZT9), for which the log2 fold change is inactive: 0.024.

Consider EIF5 (UniProt P55010), for which the log2 fold change is inactive: 0.006.

EIF2B1 (UniProt Q14232): the log2 fold change is inactive: -0.048.

For EHBP1L1 (UniProt Q8N3D4), the log2 fold change is inactive: 0.015.

With EOGT (UniProt Q5NDL2), the log2 fold change is inactive: 0.038.

For EHD2 (UniProt Q9NZN4), the log2 fold change was inactive: 0.012.

In the case of EMC8 (UniProt O43402), the log2 fold change was inactive: 0.041.

On to EIF4H (UniProt Q15056), for which the log2 fold change was inactive: -0.028.

As for EIF2S3 (UniProt P41091), the log2 fold change is inactive: -0.001.

As for EIF5B (UniProt O60841), the log2 fold change is inactive: -0.023.

As for ELOC (UniProt Q15369), the log2 fold change was inactive: -0.007.

On to EFHD2 (UniProt Q96C19), for which the log2 fold change is inactive: 0.05.

EFCAB14 (UniProt O75071): the log2 fold change was inactive: 0.022.

As for EEF1B2 (UniProt P24534), the log2 fold change was inactive: 0.027.

Turning to EFL1 (UniProt Q7Z2Z2), the log2 fold change is inactive: 0.017.

EIF1AD (UniProt Q8N9N8): the log2 fold change is inactive: 0.017.

On to EMD (UniProt P50402), for which the log2 fold change was inactive: 0.054.

Turning to ELP1 (UniProt O95163), the log2 fold change was inactive: -0.001.

ELOVL5 isoform 2 (UniProt Q9NYP7): the log2 fold change is inactive: 0.098.

Take EEF1AKNMT (UniProt Q8N6R0): the log2 fold change was inactive: 0.059.

Consider EEF1D isoform 2 (UniProt P29692), for which the log2 fold change is inactive: 0.108.

For the target EEF1G isoform 2 (UniProt P26641), the log2 fold change is inactive: 0.014.

Consider EIF4E isoform 2 (UniProt P06730), for which the log2 fold change is inactive: 0.102.

In the case of EIF3I (UniProt Q13347), the log2 fold change is inactive: 0.065.

For EED, A0A5F9ZI63, the log2 fold change is inactive: 0.078.

Take EIF3F (UniProt O00303): the log2 fold change is inactive: 0.058.

In the case of EIF1 (UniProt P41567), the log2 fold change is inactive: 0.005.

On to ENDOG (UniProt Q14249), for which the log2 fold change is inactive: 0.058.

Consider EIF4G1 isoform 8 (UniProt Q04637), for which the log2 fold change is inactive: -0.045.

EIF4A1 (UniProt P60842): the log2 fold change is inactive: -0.01.

For EHD4 (UniProt Q9H223), the log2 fold change was inactive: 0.02.

EIF3J (UniProt O75822): the log2 fold change is inactive: 0.042.

Compound in another test: O=C1NC(=O)C(c2cnc3ccccn23)=C1c1cn2c3c(cc(F)cc13)CN(C(=O)N1CCCCC1)CC2
Described as above. The method in brief:
as §1
For ELOVL1 (UniProt Q9BW60), the log2 fold change is inactive: 0.002.

As to EGLN1 (UniProt Q9GZT9), the log2 fold change is inactive: 0.014.

As for EIF5 (UniProt P55010), the log2 fold change was inactive: -0.075.

In the case of EIF2B1 (UniProt Q14232), the log2 fold change is inactive: -0.015.

On to EHBP1L1 (UniProt Q8N3D4), for which the log2 fold change is inactive: -0.043.

As to EOGT (UniProt Q5NDL2), the log2 fold change is inactive: 0.009.

With EHD2 (UniProt Q9NZN4), the log2 fold change is inactive: -0.04.

Regarding EMC8 (UniProt O43402), the log2 fold change is inactive: -0.04.

Take EIF4H (UniProt Q15056): the log2 fold change was inactive: -0.023.

Regarding EIF2S3 (UniProt P41091), the log2 fold change was inactive: 0.066.

Regarding EIF5B (UniProt O60841), the log2 fold change was inactive: 0.059.

In the case of ELOC (UniProt Q15369), the log2 fold change was inactive: -0.107.

With EFHD2 (UniProt Q96C19), the log2 fold change is inactive: -0.032.

For EFCAB14 (UniProt O75071), the log2 fold change was inactive: -0.031.

As to EEF1B2 (UniProt P24534), the log2 fold change was inactive: -0.007.

Take EFL1 (UniProt Q7Z2Z2): the log2 fold change is inactive: -0.025.

On to EIF1AD (UniProt Q8N9N8), for which the log2 fold change was inactive: -0.027.

For EMD (UniProt P50402), the log2 fold change is inactive: -0.084.

ELP1 (UniProt O95163): the log2 fold change was inactive: -0.018.

Take ELOVL5 isoform 2 (UniProt Q9NYP7): the log2 fold change was inactive: 0.035.

EEF1AKNMT (UniProt Q8N6R0): the log2 fold change was inactive: 0.055.

As to EEF1D isoform 2 (UniProt P29692), the log2 fold change was inactive: -0.001.

On to EEF1G isoform 2 (UniProt P26641), for which the log2 fold change is inactive: 0.003.

For the target EIF4E isoform 2 (UniProt P06730), the log2 fold change was inactive: -0.044.

For the target EIF3I (UniProt Q13347), the log2 fold change is inactive: 0.073.

For the target EED, A0A5F9ZI63, the log2 fold change was inactive: 0.065.

For the target EIF3F (UniProt O00303), the log2 fold change is inactive: 0.086.

Consider EIF1 (UniProt P41567), for which the log2 fold change is inactive: -0.077.

ENDOG (UniProt Q14249): the log2 fold change was inactive: -0.065.

With EIF4G1 isoform 8 (UniProt Q04637), the log2 fold change was inactive: 0.194.

As for EIF4A1 (UniProt P60842), the log2 fold change is inactive: -0.01.

For the target EHD4 (UniProt Q9H223), the log2 fold change was inactive: -0.042.

Consider EIF3J (UniProt O75822), for which the log2 fold change was inactive: -0.017.

Compound in a further test: c1cc(OCCN2CCCCC2)cc(-c2n[nH]c3ccc(-c4nnc[nH]4)cc23)c1
The test is described as above. Put shortly:
as §1
ELOVL1 (UniProt Q9BW60): the log2 fold change was inactive: 0.035.

Take EGLN1 (UniProt Q9GZT9): the log2 fold change is inactive: -0.178.

Regarding EIF5 (UniProt P55010), the log2 fold change is inactive: -0.008.

Turning to EIF2B1 (UniProt Q14232), the log2 fold change is inactive: -0.024.

On to EHBP1L1 (UniProt Q8N3D4), for which the log2 fold change is inactive: -0.101.

In the case of EOGT (UniProt Q5NDL2), the log2 fold change is inactive: -0.063.

For EHD2 (UniProt Q9NZN4), the log2 fold change is inactive: -0.015.

For the target EMC8 (UniProt O43402), the log2 fold change was inactive: -0.018.

Take EIF4H (UniProt Q15056): the log2 fold change was inactive: 0.088.

Regarding EIF2S3 (UniProt P41091), the log2 fold change is inactive: -0.154.

Take EIF5B (UniProt O60841): the log2 fold change is inactive: -0.1.

Consider ELOC (UniProt Q15369), for which the log2 fold change is inactive: -0.053.

In the case of EFHD2 (UniProt Q96C19), the log2 fold change was inactive: 0.02.

In the case of EFCAB14 (UniProt O75071), the log2 fold change was inactive: -0.075.

Take EEF1B2 (UniProt P24534): the log2 fold change was inactive: -0.035.

With EFL1 (UniProt Q7Z2Z2), the log2 fold change was inactive: -0.023.

EIF1AD (UniProt Q8N9N8): the log2 fold change was inactive: 0.019.

In the case of EMD (UniProt P50402), the log2 fold change is inactive: -0.141.

ELP1 (UniProt O95163): the log2 fold change was inactive: -0.041.

Turning to ELOVL5 isoform 2 (UniProt Q9NYP7), the log2 fold change was inactive: -0.158.

As to EEF1AKNMT (UniProt Q8N6R0), the log2 fold change was inactive: 0.031.

Take EEF1D isoform 2 (UniProt P29692): the log2 fold change was inactive: -0.067.

For EEF1G isoform 2 (UniProt P26641), the log2 fold change was inactive: -0.046.

On to EIF4E isoform 2 (UniProt P06730), for which the log2 fold change is inactive: 0.141.

On to EIF3I (UniProt Q13347), for which the log2 fold change was inactive: -0.071.

With EED, A0A5F9ZI63, the log2 fold change is inactive: -0.078.

As for EIF3F (UniProt O00303), the log2 fold change is inactive: -0.021.

As for EIF1 (UniProt P41567), the log2 fold change is inactive: -0.107.

For the target ENDOG (UniProt Q14249), the log2 fold change is inactive: -0.003.

With EIF4G1 isoform 8 (UniProt Q04637), the log2 fold change was inactive: -0.269.

As to EIF4A1 (UniProt P60842), the log2 fold change is inactive: -0.05.

On to EHD4 (UniProt Q9H223), for which the log2 fold change is inactive: -0.02.

Consider EIF3J (UniProt O75822), for which the log2 fold change was inactive: 0.022.
